Measurements from publication PMC7139925.

Amino acid sequences for entries named in this document (tags omitted). Residues count along the entry.
UniProt P02769, 25-607: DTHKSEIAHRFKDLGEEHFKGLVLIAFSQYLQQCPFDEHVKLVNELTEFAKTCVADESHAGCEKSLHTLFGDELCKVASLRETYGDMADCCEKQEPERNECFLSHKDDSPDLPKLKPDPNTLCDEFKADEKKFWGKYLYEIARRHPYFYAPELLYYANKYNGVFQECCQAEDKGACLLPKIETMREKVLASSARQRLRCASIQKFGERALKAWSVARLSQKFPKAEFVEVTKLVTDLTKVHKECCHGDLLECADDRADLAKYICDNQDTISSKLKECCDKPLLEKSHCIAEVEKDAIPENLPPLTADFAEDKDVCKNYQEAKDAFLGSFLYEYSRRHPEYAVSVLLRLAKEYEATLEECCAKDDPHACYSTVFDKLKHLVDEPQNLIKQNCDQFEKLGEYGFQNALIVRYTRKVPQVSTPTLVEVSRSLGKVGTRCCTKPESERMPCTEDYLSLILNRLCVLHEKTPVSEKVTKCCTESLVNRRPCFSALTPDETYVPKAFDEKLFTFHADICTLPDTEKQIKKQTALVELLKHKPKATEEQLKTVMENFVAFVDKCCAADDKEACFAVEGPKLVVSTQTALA

Columns and labels:
[1] = tested on: VEGF165; assay: EMSA; details: HEPES/Na+, 25 mM HEPES, 150 mM NaCl, pH 7.4, 30 pmol oligo + 40 pmol protein in 9 uL, 30 min at 4 C, 7% native PAGE in TAE 1X pH 7.8 at r.t., recombinant protein, folded or branched DNA
[2] = target: Bovine serum albumin (BSA) (Bos taurus) (UniProt P02769); assay: EMSA; details: annealed and not annealed, HEPES/Na+, 1:1.3, same result for all three dimers; 25 mM HEPES, 150 mM NaCl, pH 7.4; 30 pmol oligo + 40 pmol protein in 9 uL, 30 min at 4 C; 7% native PAGE in TAE 1X pH 7.8 at r.t.; commercial protein; folded or branched DNA

Sequence	binding result ([1]; annealed, 1:1.3, retarded band, free band not fully gone, two V7t1 copies joined 3' to 5' by HEG-based linker (C24H51O20P3), same polarity)	binding result ([1]; not annealed, 1:1.3, free band reduced, aggregates present, two V7t1 copies joined 3' to 5' by HEG-based linker (C24H51O20P3), same polarity)	binding result [2]	binding result ([1]; annealed, 1:1.3 oligo/protein)	binding result ([1]; not annealed, 1:1.3)
TGTGGGGGTGGACGGGCCGGGTAGA [bisV7t1HEG2]	binds more weakly	binds	–	–	–
TGTGGGGGTGGACGGGCCGGGTAGA [V7t1]	–	–	no binding	binds	binds

For some assays here: No signal at the amounts used counts as a negative. For some assays here: Construct, isoform or probe ends are uncertain for at least one entry. For some assays here: Weaker means in comparison with the reference protein, sequence or condition of that experiment. For some assays here: At least one verdict was read from the data and is not stated in words by the source.
